In paper PMC7196271:
Results are given in words; binding and its absence hold for the method and conditions named. In cells and extracts the contact can be indirect. Some binding calls cover weakened binding; strength is not graded here.

The chains behind the UniProt entries cited, without tags or fusion partners.
UniProt P01106: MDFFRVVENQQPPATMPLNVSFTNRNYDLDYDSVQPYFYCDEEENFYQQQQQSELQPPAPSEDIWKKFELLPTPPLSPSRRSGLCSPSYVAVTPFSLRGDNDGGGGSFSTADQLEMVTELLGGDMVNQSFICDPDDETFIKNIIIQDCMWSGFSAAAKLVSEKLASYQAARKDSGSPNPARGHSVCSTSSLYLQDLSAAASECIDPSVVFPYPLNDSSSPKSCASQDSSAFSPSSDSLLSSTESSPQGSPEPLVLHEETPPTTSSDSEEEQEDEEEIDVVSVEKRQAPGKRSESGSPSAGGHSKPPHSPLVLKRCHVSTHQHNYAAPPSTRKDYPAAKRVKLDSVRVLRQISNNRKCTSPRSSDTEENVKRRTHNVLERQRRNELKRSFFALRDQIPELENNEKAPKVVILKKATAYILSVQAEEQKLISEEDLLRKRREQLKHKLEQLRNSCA
UniProt Q969H0: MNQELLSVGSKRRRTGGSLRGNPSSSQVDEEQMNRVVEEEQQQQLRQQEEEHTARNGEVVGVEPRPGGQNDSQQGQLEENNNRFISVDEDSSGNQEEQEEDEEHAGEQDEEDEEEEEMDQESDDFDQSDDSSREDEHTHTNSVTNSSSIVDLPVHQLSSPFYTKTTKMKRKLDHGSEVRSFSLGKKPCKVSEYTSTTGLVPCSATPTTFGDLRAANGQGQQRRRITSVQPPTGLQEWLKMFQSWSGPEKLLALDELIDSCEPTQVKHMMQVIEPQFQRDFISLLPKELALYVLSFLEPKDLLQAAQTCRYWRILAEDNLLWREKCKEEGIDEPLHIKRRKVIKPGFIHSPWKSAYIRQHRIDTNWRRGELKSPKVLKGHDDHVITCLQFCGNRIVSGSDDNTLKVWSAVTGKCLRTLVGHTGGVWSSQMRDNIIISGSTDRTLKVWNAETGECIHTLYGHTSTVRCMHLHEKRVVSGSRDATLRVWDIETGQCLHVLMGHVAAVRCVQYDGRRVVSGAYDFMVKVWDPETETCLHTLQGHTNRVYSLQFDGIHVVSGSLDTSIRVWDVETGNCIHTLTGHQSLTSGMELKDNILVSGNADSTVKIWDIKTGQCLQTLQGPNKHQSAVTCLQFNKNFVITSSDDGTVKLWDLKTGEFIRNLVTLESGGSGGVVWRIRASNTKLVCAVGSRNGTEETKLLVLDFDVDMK

Legend:
HA-c-Myc = HA-c-Myc (UniProt P01106); assay: co-IP; HA-c-Myc and Flag-FBW7 co-transfected into 293T cells for 48 h; whole-cell extract (Pierce IP Lysis Buffer) incubated with HA antibody or Flag antibody and agarose A/G beads; western blot; xanthohumol treatment according to the text
[1] = target: FBW7 (endogenous, U87 cells) (human (endogenous in U87)) (UniProt Q969H0); assay: co-IP; endogenous proteins; U87 cells treated with or without xanthohumol; whole-cell lysate incubated with FBW7 antibody or c-Myc antibody and agarose A/G beads; western blot

Substance	binding (HA-c-Myc)	binding [1]
Flag-FBW7 (from UniProt Q969H0 1-707)	binds	
c-Myc (endogenous, U87 cells) (from UniProt P01106 1-454)		binds
